Data published in patent US7884136B2, “Modified-release formulations of a bupropion salt” (Biovail Laboratories International S.R.L., priority 2005, dated 2011).

Tests used:
[1] = Accelerated stability study of bupropion HBr, closed bottles, 40° C./75% RH, 3 and 6 months, HPLC; format: physicochemical; details: 40° C./R.H. 75%
Experimental: The samples were prepared in closed bottles and placed in the stability chamber. HPLC analysis was conducted on the samples prior to placing them in the stability chamber (time 0), and after 3 months and 6 months. The amounts of the main degradation products present at time 0 were compared with those amounts present after 3 months and 6 months. […] For each sample tested, at each time period, two different HPLC assays were run. The first assay labelled chromatographic purity A, measured the percentage of three impurities 3′chloropropiophenone, 3′-Chloro-2-bromopropiophenone and 3′-Chlorobenzoic acid. The second assay, labelled chromatographic purity B, measured the percentage of 2-N-(tert-Butyl)-aminopropiophenone, a single unknown impurity and the total unknown impurities.

[2] = Shelf life stability program of bupropion HBr, 25° C./60% RH, 3 and 6 months, HPLC; format: physicochemical; details: 12 months
Experimental: The stability of bupropion HBr was studied over a longer term under conditions meant to approximate standard storage or shelf conditions. Samples were prepared in closed containers and subjected to long-term storage at 25° C.+2° C. and 60%+5% RH in a stability chamber. The samples were analyzed by HPLC prior to being placed in the stability chamber (time 0) and after 3 months and 6 months. The amounts of the main degradation products present at time 0 were compared with the amounts present at 3 months and 6 months. As shown in Table 77-79 three different batches of bupropion HBr were tested. As in Example 10 each sample was tested under two HPLC assay conditions to identify 6 impurities or groups of impurities as described in Example 10.

Row | SMILES | Identification (IR, HPLC) ([1]; 3 month) | Identification (IR, HPLC) ([1]; 6 months) | Identification (IR, HPLC) ([1]; time 0) | Microbial cont. moulds and yeast ([2]; 25° C./RH 60%) | Microbial cont. total microbial count ([2]; 25° C./RH 60%) | other results
1 | Br.CC(NC(C)(C)C)C(=O)c1cccc(Cl)c1 (stereo not drawn) [Bupropion.HBr D00894] | positive | positive | positive | – | – | –
2 | Br.CC(NC(C)(C)C)C(=O)c1cccc(Cl)c1 (stereo not drawn) [Bupropion.HBr D00895] | positive | positive | positive | – | – | –
3 | Br.CC(NC(C)(C)C)C(=O)c1cccc(Cl)c1 (stereo not drawn) [Bupropion.HBr D00896] | positive | positive | positive | – | – | –
4 | Br.CC(NC(C)(C)C)C(=O)c1cccc(Cl)c1 (stereo not drawn) [Bupropion•HBr D00894] | – | – | – | <100 ufc/g | <100 ufc/g | –
5 | Br.CC(NC(C)(C)C)C(=O)c1cccc(Cl)c1 (stereo not drawn) [Bupropion•HBr D00895] | – | – | – | <100 ufc/g | <100 ufc/g | –
6 | Br.CC(NC(C)(C)C)C(=O)c1cccc(Cl)c1 (stereo not drawn) [Bupropion•HBr D00896] | – | – | – | <100 ufc/g | <100 ufc/g | –
7 | Br.CC(NC(C)(C)C)C(=O)c1cccc(Cl)c1 (stereo not drawn) [Bupropion•HBr] | – | – | – | – | – | Microbial cont. moulds and yeast ([2]; Batch D00894, 25° C., R.H. 60%): <100 ufc/g; Microbial cont. total microbial count ([2]; Batch D00894, 25° C., R.H. 60%): <100 ufc/g; Microbial cont. moulds and yeast ([2]; Batch D00895, 25° C., R.H. 60%): <100 ufc/g; Microbial cont. total microbial count ([2]; Batch D00895, 25° C., R.H. 60%): <100 ufc/g; Microbial cont. moulds and yeast ([2]; Batch D00896, 25° C., R.H. 60%): <100 ufc/g; Microbial cont. total microbial count ([2]; Batch D00896, 25° C., R.H. 60%): <100 ufc/g
